PubChem BioAssay AID1259405 – NCATS, 2018
Shown is an unselected part of about 50,000 reagents. Of all reagents, about 4,000 (8%) were called active. 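Mouse siRNA library applied to hamster cells; one well for each siRNA.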 Unmarked entries are inactive. The numbers tell different reagents against one gene apart.

Purpose: 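Mouse-designed siRNAs used to find CHO productivity engineering targets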 (primary screen)
Cells: Chinese hamster CHO-K1 ovary cells with stable secreted eGFP expression
Reagent: single siRNA against mouse genes, 0.8 pmol siRNA per well (2 µl of 400 nM stock)
Timing: 3 days
Detection: 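Per-well intracellular GFP measured by laser scanning cytometry, plus viability from ATP luminescence, each relative to plate median of non-targeting control wells, in %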
Direction: GFP, % of control: higher = more GFP per well, higher productivity; viability (ATP), % of control: higher = more viable cells (more ATP)
Active means: 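Called active when intracellular GFP, relative to negative control, is at or above 120%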

{"Gene": "Cd302 (GeneID 66205)", "reagent": 1, "GFP, % of control": 117, "viability (ATP), % of control": 116}
{"Gene": "Cd302 (GeneID 66205)", "reagent": 2, "GFP, % of control": 62.9, "viability (ATP), % of control": 73.7}
{"Gene": "Cd302 (GeneID 66205)", "reagent": 3, "GFP, % of control": 99.3, "viability (ATP), % of control": 87.8}
{"Gene": "Exoc7 (GeneID 53413)", "reagent": 1, "GFP, % of control": 67.4, "viability (ATP), % of control": 70.4}
{"Gene": "Exoc7 (GeneID 53413)", "reagent": 2, "GFP, % of control": 84.7, "viability (ATP), % of control": 64.2}
{"Gene": "Exoc7 (GeneID 53413)", "reagent": 3, "GFP, % of control": 82.6, "viability (ATP), % of control": 43.5}
{"Gene": "Ap3s2 (GeneID 11778)", "reagent": 1, "GFP, % of control": "120 (active)", "viability (ATP), % of control": 73.6}
{"Gene": "Ap3s2 (GeneID 11778)", "reagent": 2, "GFP, % of control": 44, "viability (ATP), % of control": 68.9}
{"Gene": "Ap3s2 (GeneID 11778)", "reagent": 3, "GFP, % of control": 86.5, "viability (ATP), % of control": 83.6}
{"Gene": "Cxcl1 (GeneID 14825)", "reagent": 1, "GFP, % of control": 72.1, "viability (ATP), % of control": 73.1}
{"Gene": "Cxcl1 (GeneID 14825)", "reagent": 2, "GFP, % of control": 84.7, "viability (ATP), % of control": 75.2}
{"Gene": "Cxcl1 (GeneID 14825)", "reagent": 3, "GFP, % of control": 90.7, "viability (ATP), % of control": 46.6}
{"Gene": "Egfl7 (GeneID 353156)", "reagent": 1, "GFP, % of control": 79.3, "viability (ATP), % of control": 84.8}
{"Gene": "Egfl7 (GeneID 353156)", "reagent": 2, "GFP, % of control": 82.8, "viability (ATP), % of control": 100}
{"Gene": "Egfl7 (GeneID 353156)", "reagent": 3, "GFP, % of control": 58.9, "viability (ATP), % of control": 39.3}
{"Gene": "Cyp4f18 (GeneID 72054)", "reagent": 1, "GFP, % of control": 72, "viability (ATP), % of control": 88.7}
{"Gene": "Cyp4f18 (GeneID 72054)", "reagent": 2, "GFP, % of control": 117, "viability (ATP), % of control": 93.3}
{"Gene": "Cyp4f18 (GeneID 72054)", "reagent": 3, "GFP, % of control": 85.7, "viability (ATP), % of control": 83.8}
{"Gene": "Gna11 (GeneID 14672)", "reagent": 1, "GFP, % of control": 91.6, "viability (ATP), % of control": 113}
{"Gene": "Gna11 (GeneID 14672)", "reagent": 2, "GFP, % of control": 90, "viability (ATP), % of control": 71.8}
{"Gene": "Gna11 (GeneID 14672)", "reagent": 3, "GFP, % of control": 41.6, "viability (ATP), % of control": 40.3}
{"Gene": "Lrrc2 (GeneID 74249)", "reagent": 1, "GFP, % of control": 71.8, "viability (ATP), % of control": 63.7}
{"Gene": "Lrrc2 (GeneID 74249)", "reagent": 2, "GFP, % of control": 61.6, "viability (ATP), % of control": 57.2}
{"Gene": "Lrrc2 (GeneID 74249)", "reagent": 3, "GFP, % of control": 107, "viability (ATP), % of control": 83.5}
{"Gene": "Gsdmc3 (GeneID 270328)", "reagent": 1, "GFP, % of control": 71, "viability (ATP), % of control": 61.9}
{"Gene": "Gsdmc3 (GeneID 270328)", "reagent": 2, "GFP, % of control": 47.4, "viability (ATP), % of control": 41.2}
{"Gene": "Gsdmc3 (GeneID 270328)", "reagent": 3, "GFP, % of control": 95.9, "viability (ATP), % of control": 87.2}

Records listed above called active (1):
{"Gene": "Ap3s2 (GeneID 11778)", "reagent": 1, "GFP, % of control": "120 (active)", "viability (ATP), % of control": 73.6}
